Assay results taken from PubChem BioAssay AID1671190 (National Center for Advancing Translational Sciences (NCATS), 2021).
Screen size: about 580,000 compounds; about 6,100 (1.1%) were called active. Inconclusive results, whose numbers are uncertain, are shown with a selection of clear calls. Calls follow the shape of the dose curve; as a rule, active = well fitted inhibition curve with a large enough effect; inconclusive = small, poorly fitted or top-dose-only effect, or another doubt; inactive = no such curve, though single readings can be large or run the other way. Where the call is inconclusive, the potency comes from a doubtful curve fit.

By UniProt entry, the sequences of proteins in these tests, tags left out. Where a name states a change or a piece, a line headed by the entry shows the natural chain unless it says otherwise.
UniProt P18054: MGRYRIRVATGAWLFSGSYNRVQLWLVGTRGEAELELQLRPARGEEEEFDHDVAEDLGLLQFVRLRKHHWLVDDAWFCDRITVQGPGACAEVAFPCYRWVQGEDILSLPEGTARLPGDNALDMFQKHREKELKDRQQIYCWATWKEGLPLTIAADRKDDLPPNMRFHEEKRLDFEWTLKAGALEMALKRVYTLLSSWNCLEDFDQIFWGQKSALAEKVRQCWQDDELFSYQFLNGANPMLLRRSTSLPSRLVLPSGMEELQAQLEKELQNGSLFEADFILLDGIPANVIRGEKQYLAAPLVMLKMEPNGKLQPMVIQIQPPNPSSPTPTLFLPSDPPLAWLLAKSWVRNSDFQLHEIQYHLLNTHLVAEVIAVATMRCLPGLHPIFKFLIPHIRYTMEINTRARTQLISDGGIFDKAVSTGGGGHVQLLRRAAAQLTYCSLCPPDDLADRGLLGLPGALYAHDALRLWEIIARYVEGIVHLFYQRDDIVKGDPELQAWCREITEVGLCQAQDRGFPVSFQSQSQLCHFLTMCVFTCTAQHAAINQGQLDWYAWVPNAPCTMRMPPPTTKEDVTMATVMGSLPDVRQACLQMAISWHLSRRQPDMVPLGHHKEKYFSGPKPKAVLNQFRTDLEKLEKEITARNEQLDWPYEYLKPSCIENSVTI

Molecular target: Polyunsaturated fatty acid lipoxygenase ALOX12 (Homo sapiens) (UniProt P18054)
Assay: Primary qHTS assay for inhibitors of human arachidonate 12S-lipoxygenase (ALOX12): Round 2
Details: purified 12hLO, xylenol orange hydroperoxide absorbance; activity change, negative = inhibition: at 108 µM (top of the series) unless noted
Outline: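 Purified human 12hLO (150 nM final) in 25 mM Hepes, 0.01% Triton X-100, pH 7.0 was preincubated 15 min at room temperature with compound. Then 40 uM arachidonic acid was added, 30 min. Hydroperoxide was read by Fe-XO absorbance ratio 573/405 nm.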
% is scaled to controls: 0 for no effect and ±100 for the full control effect; potency is read from the fitted curve at half-maximal effect.

| SMILES | Potency | activity change, negative = inhibition |
| --- | --- | --- |
| Cc1ccc(S(=O)(=O)Nc2ccc(N3CCCCC3)cc2)cc1 | inconclusive: 50.1 µM [inhibitor, partial curve, poor fit] | – |
| CC(CCc1ccccc1)N1CCN(Cc2ccccc2)CC1 (stereo not given) | active: 5.62 µM | – |
| NC(=O)CC(NC(=O)Cc1cccc2ccccc12)c1ccc(N2CCc3ccccc3C2)c([N+](=O)[O-])c1 (stereo not given) | inconclusive: 44.7 µM [inhibitor, partial curve, poor fit] | – |
| Cc1nn(-c2ccccc2)c(C)c1/C=N/n1c(-c2ccc(C(C)(C)C)cc2)n[nH]c1=S | inconclusive: 14.1 µM [inhibitor, full curve, poor fit] | – |
| COC(=O)C1=C(C)N(Cc2ccccc2C(F)(F)F)C(=NCC2CC2)NC1c1cccc(F)c1 (stereo not given) | inconclusive: 50.1 µM [inhibitor, partial curve, poor fit] | – |
| OC(CNCC1COc2ccccc2O1)COCc1cccs1 (stereo not given) | inconclusive: 14.1 µM [inhibitor, partial curve] | – |
| CCOC(=O)C1=C(COC(=O)c2oc3c(F)cccc3c2C)NC(=O)NC1C (stereo not given) | inconclusive: 39.8 µM [inhibitor, partial curve, poor fit] | – |
| CCC(CO)Oc1cc(NC(=O)c2ccc(C)cc2)c2ncn(C(C)C)c2c1 (stereo not given) | inconclusive: 10 µM [inhibitor, full curve, poor fit] | – |
| COC(=O)Nc1ccc2c(c1)N(C(=O)CCN1CCOCC1)c1ccccc1S2 | inconclusive: 44.7 µM [inhibitor, partial curve] | – |
| Clc1ccc(-c2nnc(-c3ccco3)nc2N2CCCCC2)cc1 | inconclusive: 44.7 µM [inhibitor, partial curve, poor fit] | – |
| O=C(CN1CCN(CC(=O)c2c[nH]c3ccccc23)CC1)NC1CC1 | inconclusive: 35.5 µM [inhibitor, partial curve, poor fit] | – |
| Cc1ccc(C(=O)Nc2ccc3oc(-c4ccncc4)nc3c2)cc1 | – | inactive: -25.9% |
| Cc1ccc(Nc2nc(CSc3n[nH]c(N)n3)cs2)cc1 | inconclusive: 50.1 µM [inhibitor, single point] | – |
| O=C(CN(c1ccc(Cl)cc1Cl)S(=O)(=O)c1ccccc1)N1CCCC1 | – | inactive: -10.2% |
| CC(=O)Oc1ccc2c(=O)c(-c3ccc(Cl)cc3)c(C(F)(F)F)oc2c1 | inconclusive: 39.8 µM [inhibitor, partial curve, poor fit] | – |
| O=C(O)C1(c2ccc(Cl)cc2)CCCC1 | – | inactive: 0% |
| O=S(=O)(c1ccc(Cl)s1)N1CCN(CCc2ccccc2)CC1 | inconclusive: 56.2 µM [inhibitor, partial curve, poor fit] | – |
| O=C1CCC(CCC(=O)N2CCN(c3ccccc3)C(=O)C2)(Cc2ccc(F)cc2)N1 (stereo not given) | – | inactive: -1.87% |
| CCOc1ccc(NC(=O)CN(C)C(=O)c2cc(-c3ccco3)nc3ccccc23)cc1OCC | inconclusive: 31.6 µM [inhibitor, single point] | – |
| CN(C)c1ccc(C(=S)N2CCN(c3ccccc3)CC2)cc1 | – | inactive: 17.3% |
| CC(=O)c1cc(C(=O)N2CCC(O)(c3ccc(C)cn3)CC2)c(=O)[nH]c1C | – | inactive: 3.23% |
| COc1ccc(C(=O)Nc2nc3c(s2)Cc2cc(OC)ccc2-3)cc1 | inconclusive: 1.78 µM [inhibitor, full curve, poor fit] | – |

In the list so far, 2 contain a CF3 group.

| SMILES | Potency | activity change, negative = inhibition |
| --- | --- | --- |
| COC(=O)C1=C(C)N(Cc2ccccc2C(F)(F)F)C(=NCC2CC2)NC1c1cccc(F)c1 (stereo not given) | inconclusive: 50.1 µM [inhibitor, partial curve, poor fit] | – |
| CC(=O)Oc1ccc2c(=O)c(-c3ccc(Cl)cc3)c(C(F)(F)F)oc2c1 | inconclusive: 39.8 µM [inhibitor, partial curve, poor fit] | – |

Record cards (already shown).
CC(CCc1ccccc1)N1CCN(Cc2ccccc2)CC1 (stereo not given) as listed: Potency: active: 5.62 µM
Cc1nn(-c2ccccc2)c(C)c1/C=N/n1c(-c2ccc(C(C)(C)C)cc2)n[nH]c1=S as listed: Potency: inconclusive: 14.1 µM [inhibitor, full curve, poor fit]

(more compounds)

| SMILES | Potency | activity change, negative = inhibition |
| --- | --- | --- |
| O=Nc1ccc(NOC(=O)c2ccccc2Br)cc1 | inconclusive: 89.1 µM [inhibitor, single point] | – |
| CC(C)(C)c1cc(NC(=O)COC(=O)c2ccc(O)cc2O)n(-c2ccccc2)n1 | inconclusive: 56.2 µM [inhibitor, partial curve, poor fit] | – |
| CCOC(=O)c1ccc(N2C(=O)C(O)=C(C(C)=O)C2c2ccccn2)cc1 (stereo not given) | inconclusive: 35.5 µM [inhibitor, partial curve, poor fit] | – |
| Cc1ccccc1-n1cnnc1SCCC(=O)Nc1cccc(S(=O)(=O)N2CCCC2)c1 | inconclusive: 112 µM [inhibitor, single point] | – |
| Nc1ncncc1-c1ccc([N+](=O)[O-])cc1 | – | inactive: -0.853% |
| O=C1C=CC(=O)N1c1ccccn1 | – | inactive: -6.45% |
| CCc1nn2c(=O)cc(CNc3ccc4c(c3)OCCCO4)nc2s1 | inconclusive: 2.51 µM [inhibitor, full curve, poor fit] | – |
| Cc1c(CN2CCC(CO)(Cc3cccc(C(F)(F)F)c3)CC2)c2ccccc2n1C | inconclusive: 44.7 µM [inhibitor, partial curve, poor fit] | – |
| CN1COc2ccc3ccccc3c2C1 | inconclusive: 63.1 µM [inhibitor, partial curve, poor fit] | – |
| O=C(CNS(=O)(=O)c1cccc(Cl)c1)Nc1ccc(-c2nc3ccccc3s2)cc1 | – | inactive: -24% |
| CCOC(=O)[C@H]1[C@H]2COc3cc(OC)ccc3[C@@H]2N2C(=O)c3cc(OC)ccc3NC(=O)[C@@]12C | inconclusive: 44.7 µM [inhibitor, partial curve, poor fit] | – |
| COc1ccccc1-c1csc(C(NC(C)=O)c2ccccc2)n1 (stereo not given) | – | inactive: -18.6% |
| CC(C)C(NS(=O)(=O)Cc1ccc(F)cc1)c1cccs1 (stereo not given) | inconclusive: 100 µM [inhibitor, single point] | – |
| Nc1c(C(=O)c2ccccc2)sc(Nc2ccc(Cl)c(Cl)c2)c1C(=O)Nc1ccccc1 | inconclusive: 112 µM [inhibitor, single point] | – |
| Cc1cccc(-c2nn(-c3ccccc3)cc2C(=O)N(C)CC(=O)Nc2ccc(N3CCOCC3)cc2)c1 | inconclusive: 50.1 µM [inhibitor, partial curve, poor fit] | – |
| CC1(C)OC(c2ccccc2)=C/C(=C\C=N\NC(=O)c2ccncc2)O1 | inconclusive: 89.1 µM [inhibitor, partial curve, poor fit] | – |
| O=C(NC(c1ccc(-c2ccccc2)cc1)c1cnccn1)C1CCN(Cc2ccc(Oc3ccccc3)cc2)CC1 (stereo not given) | inconclusive: 112 µM [inhibitor, single point] | – |
| Cc1ccc(CNC(=O)NC(=O)C(F)(F)F)cc1 | inconclusive: 8.91 µM [inhibitor, full curve, poor fit] | – |
| Cc1ccc(CN2CCc3oc(C)c(C(=O)N4CCSCC4)c3C2)cc1 | inconclusive: 7.94 µM [inhibitor, full curve] | – |
| Cc1cccc(OCC2(CNCc3nccs3)C[C@@H](O)[C@@H](O)C2)n1 (stereo not given in full) | inconclusive: 10 µM [inhibitor, full curve] | – |
| O=S1(=O)CC(N2CCCC2)CN1Cc1cn(Cc2cccc(Cl)c2)nn1 (stereo not given) | – | inactive: 0% |
| COc1ccc(-c2cn3c(n2)sc2cc(C(=O)Nc4ccc(C)cc4C)ccc23)cc1 | inconclusive: 141 µM [inhibitor, partial curve, poor fit] | – |

| SMILES | Potency | activity change, negative = inhibition |
| --- | --- | --- |
| CCOC(=O)Cc1csc(NC(=O)CN2CCCCC2)n1 | inconclusive: 6.31 µM [inhibitor, partial curve, poor fit] | – |
| C/C=C/C1=CC(=O)C[C@H](c2ccc3c(c2)OCO3)C1 | inconclusive: 50.1 µM [inhibitor, partial curve, poor fit] | – |
| CCc1nnc(NS(=O)(=O)c2ccc(N/C=C(\C=O)c3nc4cc(Cl)ccc4o3)cc2)s1 | active: 8.91 µM | – |
| O=C(OCN1C(=O)c2ccccc2C1=O)c1ccccc1 | inconclusive: 28.2 µM [inhibitor, partial curve, poor fit] | – |
| COc1ccccc1-c1cc(C(=O)N/N=C/c2ccoc2)c2ccccc2n1 | – | inactive: 0% |
| Cc1ccc(-c2nc3ccccc3c(=O)n2-c2c(C)n(C)n(-c3ccccc3)c2=O)cc1 | – | inactive: 32.6% |
| O=C(c1cnc2c(c1)N(C(=O)CCc1ccccc1)CCC2)N1CCC(c2ccccc2)CC1 | – | inactive: 17.9% |
| COC(=O)[C@@H]1Cc2ncn(C(C)C)c2CN1C(=O)c1ccc(C(F)(F)F)cc1 | inconclusive: 7.08 µM [inhibitor, full curve] | – |
| CCOC(=O)C1=C(C)N=C2SC(C)C(=O)N2C1c1cccc(F)c1 (stereo not given) | inconclusive: 44.7 µM [inhibitor, partial curve, poor fit] | – |
| O=C1CSC(=S)N1Cc1cccnc1 | – | inactive: 0% |
| CC(Nc1ccc2oc(C(C)(C)C)nc2c1)c1nc(C(C)(C)C)no1 (stereo not given) | – | inactive: -31.2% |
| CCOc1ccc(NC(=O)CCSc2nc(-c3ccc4c(c3)OCO4)cc(C(F)(F)F)n2)cc1 | – | inactive: -1.46% |
| CC(NC(=O)Cc1c(Cl)cccc1Cl)c1ccccn1 (stereo not given) | inconclusive: 5.01 µM [inhibitor, full curve, poor fit] | – |
| Cc1[nH]c2ccccc2c1C(=O)COC(=O)c1nccnc1N | inconclusive: 28.2 µM [inhibitor, partial curve, poor fit] | – |
| CCOc1ccc(NC(=O)CN(C)C(=O)c2cccc(S(=O)(=O)N3CCCC3)c2)cc1OCC | inconclusive: 50.1 µM [inhibitor, partial curve, poor fit] | – |
| CN1CCC/C1=C1/C(=O)N(c2ccccc2)N=C1NC(=O)Nc1cccc(Cl)c1 | – | inactive: -14.3% |
| COc1cccc2c1OC1(CCN(C(C)=O)CC1)N1N=C(c3ccccc3)CC21 (stereo not given) | – | inactive: 49.9% |
| CC1(C)Cc2cccc(OCC(=O)N3CCN(c4ccc([N+](=O)[O-])cc4)CC3)c2O1 | – | inconclusive: -32.8% [inhibitor] |
| Cc1ccccc1OCCNN | inconclusive: 3.98 µM [inhibitor, full curve, poor fit] | – |
| CSc1nnc2c(=O)[nH]c(=O)n(C)c2n1 | inconclusive: 20 µM [inhibitor, partial curve, poor fit] | – |
| CCOC(=O)C1=C(Cc2ccc(F)cc2)C(=O)c2ccccc2C1=O | inconclusive: 44.7 µM [inhibitor, partial curve, poor fit] | – |
